Laboratory results: PubChem BioAssay AID1259425 (University of Nebraska Medical Center, 2018)

Assay: 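Seek colon cancer weak points whose silencing resembles KSR1 loss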 (primary screen)
Cells: HCT116 human colon cancer cells
Reagent: siRNA pool against human genes, 50 nM siRNA
Measured: 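After 50 nM siRNA pool, branched-DNA assay measures six marker transcripts per well, minus blank, normalised to the geometric mean of two housekeeping transcripts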
Scale: BNIP3L mRNA: higher = more BNIP3L transcript after knockdown; NDRG1 mRNA: higher = more NDRG1 transcript after knockdown; BNIP3 mRNA: higher = more BNIP3 transcript after knockdown; ALDOC mRNA: higher = more ALDOC transcript after knockdown; ACSL5 mRNA: higher = more ACSL5 transcript after knockdown
This is one part, drawn at random, of about 14,000 reagents. Not stated in the record: the time to read-out.

gene knocked down	BNIP3L mRNA, set 1	NDRG1 mRNA, set 1	BNIP3 mRNA, set 1	ALDOC mRNA, set 1	ACSL5 mRNA, set 1
ATXN7L1	0.169	0.126	0.309	0.0927	0.202
TRIO	0.109	0.133	0.419	0.00842	0.306
LHX9	0.196	0.146	0.354	0.024	0.301
CYP1A2	0.0718	0.19	0.351	0.0119	0.147
FOXN2	0.0991	0.183	0.263	0.0459	0.245
TAB1	0.0817	0.0916	0.251	0.0305	0.221
FANCD2	0.14	0.265	0.212	0.0266	0.263
SART3	0.0811	0.122	0.231	0.0209	0.135
GCLC	0.0682	0.137	0.228	0.0272	0.198
NDUFS2	0.0693	0.173	0.207	0.0195	0.0907
GRIK1	0.155	0.154	0.288	0.0197	0.232
PSAP	0.0544	0.193	0.207	0.0093	0.146
HBG2	0.084	0.124	0.185	0.0213	0.135
RBP2	0.162	0.213	0.284	0.0626	0.171
ADRM1	0.184	0.156	0.221	0.0353	0.0818
TRMO	0.204	0.259	0.325	0.0135	0.119
ABCC10	0.108	0.139	0.297	0.00731	0.213
GMPPB	0.108	0.608	0.45	0.0473	0.139
MYOG	0.0859	0.0435	0.25	0.00363	0.0508
NOL4	0.0592	0.175	0.354	0.0125	0.153

Sorted by “BNIP3L mRNA, set 1” (highest first): 2 of the entries above.
gene knocked down	BNIP3L mRNA, set 1	NDRG1 mRNA, set 1	BNIP3 mRNA, set 1	ALDOC mRNA, set 1	ACSL5 mRNA, set 1
ATXN7L1	0.169	0.126	0.309	0.0927	0.202
TRIO	0.109	0.133	0.419	0.00842	0.306
